This is one part of the list.

Protein sequences, listed by entry. Tags and fused reporters are not part of them. Lines headed by an entry give the natural chain unless they say otherwise; changes in a name come on top.
UniProt Q6UW68: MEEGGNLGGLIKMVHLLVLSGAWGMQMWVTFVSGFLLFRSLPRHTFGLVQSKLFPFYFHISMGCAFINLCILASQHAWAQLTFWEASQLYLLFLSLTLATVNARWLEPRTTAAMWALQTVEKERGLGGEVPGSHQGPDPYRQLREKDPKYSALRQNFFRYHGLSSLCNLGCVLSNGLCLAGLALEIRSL
UniProt Q8IWR1: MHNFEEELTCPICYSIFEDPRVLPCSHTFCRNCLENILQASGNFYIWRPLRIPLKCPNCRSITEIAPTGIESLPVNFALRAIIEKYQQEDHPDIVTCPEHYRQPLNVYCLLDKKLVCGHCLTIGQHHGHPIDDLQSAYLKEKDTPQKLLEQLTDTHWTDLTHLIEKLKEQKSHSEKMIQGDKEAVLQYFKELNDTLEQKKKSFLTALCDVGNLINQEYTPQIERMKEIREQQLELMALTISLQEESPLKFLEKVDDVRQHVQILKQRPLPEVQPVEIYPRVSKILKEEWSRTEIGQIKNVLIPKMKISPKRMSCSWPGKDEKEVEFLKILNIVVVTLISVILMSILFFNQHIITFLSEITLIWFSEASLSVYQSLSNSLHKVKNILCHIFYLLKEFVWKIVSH
UniProt Q9P2C4: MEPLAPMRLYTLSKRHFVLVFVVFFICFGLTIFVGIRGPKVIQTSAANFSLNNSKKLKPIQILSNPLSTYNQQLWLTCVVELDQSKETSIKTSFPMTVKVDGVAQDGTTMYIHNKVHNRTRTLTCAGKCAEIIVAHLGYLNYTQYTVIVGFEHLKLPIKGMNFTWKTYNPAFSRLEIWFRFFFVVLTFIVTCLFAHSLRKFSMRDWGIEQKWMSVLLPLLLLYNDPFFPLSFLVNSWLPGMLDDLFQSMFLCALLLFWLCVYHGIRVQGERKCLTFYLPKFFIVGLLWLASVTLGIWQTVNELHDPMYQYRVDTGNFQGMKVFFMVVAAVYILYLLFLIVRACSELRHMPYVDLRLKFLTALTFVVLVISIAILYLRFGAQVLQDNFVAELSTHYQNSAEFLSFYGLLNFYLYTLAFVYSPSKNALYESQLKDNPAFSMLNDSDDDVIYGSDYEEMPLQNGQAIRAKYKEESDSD
UniProt Q12893: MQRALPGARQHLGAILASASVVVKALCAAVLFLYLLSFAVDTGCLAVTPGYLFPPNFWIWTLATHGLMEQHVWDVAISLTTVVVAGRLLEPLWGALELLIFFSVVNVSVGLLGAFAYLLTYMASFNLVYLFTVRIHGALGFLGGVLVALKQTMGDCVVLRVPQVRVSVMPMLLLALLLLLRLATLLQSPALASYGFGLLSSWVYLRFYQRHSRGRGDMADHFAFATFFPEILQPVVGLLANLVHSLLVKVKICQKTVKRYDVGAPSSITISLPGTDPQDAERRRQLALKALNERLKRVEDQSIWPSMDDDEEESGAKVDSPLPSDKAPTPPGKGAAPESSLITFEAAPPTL
UniProt O00220, whole entry: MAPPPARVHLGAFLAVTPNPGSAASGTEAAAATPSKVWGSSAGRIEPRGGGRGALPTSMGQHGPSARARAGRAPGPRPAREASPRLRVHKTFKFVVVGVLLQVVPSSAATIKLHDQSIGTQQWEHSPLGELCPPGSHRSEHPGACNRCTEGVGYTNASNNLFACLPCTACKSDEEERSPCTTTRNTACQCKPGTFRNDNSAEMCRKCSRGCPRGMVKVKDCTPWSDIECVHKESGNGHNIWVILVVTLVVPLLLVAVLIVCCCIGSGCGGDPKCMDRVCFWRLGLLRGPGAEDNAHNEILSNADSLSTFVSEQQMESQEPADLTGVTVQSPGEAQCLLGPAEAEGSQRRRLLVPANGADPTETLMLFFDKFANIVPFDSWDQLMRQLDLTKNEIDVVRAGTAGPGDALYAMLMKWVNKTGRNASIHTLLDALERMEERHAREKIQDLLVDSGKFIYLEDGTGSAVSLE
UniProt P67936, whole entry: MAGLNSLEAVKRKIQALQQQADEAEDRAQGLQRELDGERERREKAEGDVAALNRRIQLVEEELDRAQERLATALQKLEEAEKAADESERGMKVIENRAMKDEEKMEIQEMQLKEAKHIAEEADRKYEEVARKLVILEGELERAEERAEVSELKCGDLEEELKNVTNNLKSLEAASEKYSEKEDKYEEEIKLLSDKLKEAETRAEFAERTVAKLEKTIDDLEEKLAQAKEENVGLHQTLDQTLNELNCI
UniProt Q04727: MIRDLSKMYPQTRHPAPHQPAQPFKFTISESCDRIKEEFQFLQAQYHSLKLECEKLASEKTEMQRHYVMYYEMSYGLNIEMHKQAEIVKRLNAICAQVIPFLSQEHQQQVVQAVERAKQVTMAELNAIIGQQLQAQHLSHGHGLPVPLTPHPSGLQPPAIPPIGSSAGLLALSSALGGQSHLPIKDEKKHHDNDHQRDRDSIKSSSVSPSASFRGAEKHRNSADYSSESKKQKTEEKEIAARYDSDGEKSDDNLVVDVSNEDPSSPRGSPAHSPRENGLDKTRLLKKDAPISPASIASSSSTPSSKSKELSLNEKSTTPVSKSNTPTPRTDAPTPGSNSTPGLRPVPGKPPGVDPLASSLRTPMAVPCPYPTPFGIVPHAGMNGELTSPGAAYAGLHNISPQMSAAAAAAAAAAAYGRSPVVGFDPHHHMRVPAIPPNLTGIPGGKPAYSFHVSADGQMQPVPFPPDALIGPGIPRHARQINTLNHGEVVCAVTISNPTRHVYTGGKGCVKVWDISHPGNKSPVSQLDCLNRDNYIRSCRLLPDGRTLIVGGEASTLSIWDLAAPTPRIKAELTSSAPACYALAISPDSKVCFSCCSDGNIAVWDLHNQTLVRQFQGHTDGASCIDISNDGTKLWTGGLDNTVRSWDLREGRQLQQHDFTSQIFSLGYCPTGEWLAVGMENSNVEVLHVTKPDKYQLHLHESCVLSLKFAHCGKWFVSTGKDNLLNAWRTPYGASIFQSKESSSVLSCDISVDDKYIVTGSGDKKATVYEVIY
UniProt Q13625: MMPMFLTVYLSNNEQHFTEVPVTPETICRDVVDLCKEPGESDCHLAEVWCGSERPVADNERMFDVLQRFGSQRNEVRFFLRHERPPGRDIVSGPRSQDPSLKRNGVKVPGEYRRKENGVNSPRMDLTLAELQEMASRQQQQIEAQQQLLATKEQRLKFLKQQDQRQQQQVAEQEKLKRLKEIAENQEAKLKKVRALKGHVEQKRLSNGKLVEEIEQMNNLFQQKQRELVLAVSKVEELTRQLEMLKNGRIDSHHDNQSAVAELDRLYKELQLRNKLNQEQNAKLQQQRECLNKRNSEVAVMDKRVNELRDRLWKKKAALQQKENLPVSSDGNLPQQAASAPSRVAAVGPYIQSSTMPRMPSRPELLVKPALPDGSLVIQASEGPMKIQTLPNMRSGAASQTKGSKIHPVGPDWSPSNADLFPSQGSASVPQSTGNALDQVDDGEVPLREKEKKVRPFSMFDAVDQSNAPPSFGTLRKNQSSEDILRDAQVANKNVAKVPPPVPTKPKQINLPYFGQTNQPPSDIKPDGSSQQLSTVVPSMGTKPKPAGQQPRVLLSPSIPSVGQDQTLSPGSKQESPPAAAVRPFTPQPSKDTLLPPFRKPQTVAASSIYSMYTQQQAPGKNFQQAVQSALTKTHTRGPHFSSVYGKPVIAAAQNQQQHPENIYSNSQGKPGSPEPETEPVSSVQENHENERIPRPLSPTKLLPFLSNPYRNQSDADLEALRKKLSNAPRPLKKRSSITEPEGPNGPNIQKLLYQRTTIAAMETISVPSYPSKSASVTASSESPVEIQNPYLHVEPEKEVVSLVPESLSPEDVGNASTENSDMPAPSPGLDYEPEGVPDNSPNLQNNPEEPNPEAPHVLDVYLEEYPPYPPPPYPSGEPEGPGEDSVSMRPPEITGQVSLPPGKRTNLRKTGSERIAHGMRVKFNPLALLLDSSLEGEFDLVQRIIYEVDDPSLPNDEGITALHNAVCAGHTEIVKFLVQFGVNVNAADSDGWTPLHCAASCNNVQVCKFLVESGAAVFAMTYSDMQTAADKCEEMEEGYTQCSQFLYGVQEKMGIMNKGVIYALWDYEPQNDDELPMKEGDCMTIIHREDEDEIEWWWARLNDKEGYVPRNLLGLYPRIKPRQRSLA
UniProt Q9Y2W1: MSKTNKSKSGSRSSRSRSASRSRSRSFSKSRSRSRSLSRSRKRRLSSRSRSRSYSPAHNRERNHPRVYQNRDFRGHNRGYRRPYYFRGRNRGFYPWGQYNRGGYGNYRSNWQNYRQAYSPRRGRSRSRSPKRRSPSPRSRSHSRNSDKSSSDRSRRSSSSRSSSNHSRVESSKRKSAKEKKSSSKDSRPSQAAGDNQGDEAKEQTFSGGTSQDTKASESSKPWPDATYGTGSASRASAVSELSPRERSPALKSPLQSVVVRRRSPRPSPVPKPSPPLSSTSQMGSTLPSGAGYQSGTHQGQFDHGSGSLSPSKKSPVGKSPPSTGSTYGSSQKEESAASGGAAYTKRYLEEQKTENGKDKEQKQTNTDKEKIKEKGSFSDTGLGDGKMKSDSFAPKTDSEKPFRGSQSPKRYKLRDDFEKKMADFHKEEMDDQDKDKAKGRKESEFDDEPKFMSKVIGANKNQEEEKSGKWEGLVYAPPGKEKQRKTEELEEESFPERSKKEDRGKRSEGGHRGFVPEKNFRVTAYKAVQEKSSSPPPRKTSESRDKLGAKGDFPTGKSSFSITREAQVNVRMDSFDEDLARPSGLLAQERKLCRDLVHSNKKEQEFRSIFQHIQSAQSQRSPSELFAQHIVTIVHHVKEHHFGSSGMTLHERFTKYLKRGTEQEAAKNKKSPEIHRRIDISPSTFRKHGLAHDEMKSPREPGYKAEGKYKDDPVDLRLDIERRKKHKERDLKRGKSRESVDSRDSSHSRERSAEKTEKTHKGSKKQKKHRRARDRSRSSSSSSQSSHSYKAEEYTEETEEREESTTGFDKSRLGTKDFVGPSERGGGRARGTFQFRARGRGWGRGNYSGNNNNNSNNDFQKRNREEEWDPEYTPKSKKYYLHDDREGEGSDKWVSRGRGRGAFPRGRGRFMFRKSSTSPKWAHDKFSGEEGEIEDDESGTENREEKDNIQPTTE
UniProt Q15388, whole entry: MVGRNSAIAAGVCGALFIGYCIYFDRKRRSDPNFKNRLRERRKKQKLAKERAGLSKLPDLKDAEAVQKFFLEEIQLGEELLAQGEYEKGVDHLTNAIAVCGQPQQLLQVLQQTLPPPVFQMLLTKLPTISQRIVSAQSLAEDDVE
UniProt Q8N5G2: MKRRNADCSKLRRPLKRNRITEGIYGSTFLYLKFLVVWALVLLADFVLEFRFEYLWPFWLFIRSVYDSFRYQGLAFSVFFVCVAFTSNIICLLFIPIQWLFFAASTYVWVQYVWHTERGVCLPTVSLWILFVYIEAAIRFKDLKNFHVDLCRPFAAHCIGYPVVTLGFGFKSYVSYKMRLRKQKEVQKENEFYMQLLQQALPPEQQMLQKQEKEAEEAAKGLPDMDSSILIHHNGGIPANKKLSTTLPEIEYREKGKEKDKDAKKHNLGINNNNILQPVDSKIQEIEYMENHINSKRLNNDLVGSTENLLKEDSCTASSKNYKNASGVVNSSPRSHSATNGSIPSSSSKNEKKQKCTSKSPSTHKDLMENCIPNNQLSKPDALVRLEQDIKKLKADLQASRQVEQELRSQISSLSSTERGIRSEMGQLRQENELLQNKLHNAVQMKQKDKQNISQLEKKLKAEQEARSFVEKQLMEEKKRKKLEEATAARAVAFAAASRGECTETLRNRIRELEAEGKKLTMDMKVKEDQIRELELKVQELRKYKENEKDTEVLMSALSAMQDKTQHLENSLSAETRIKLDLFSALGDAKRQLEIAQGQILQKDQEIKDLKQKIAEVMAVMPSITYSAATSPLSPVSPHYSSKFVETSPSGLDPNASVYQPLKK
UniProt Q8NBN3: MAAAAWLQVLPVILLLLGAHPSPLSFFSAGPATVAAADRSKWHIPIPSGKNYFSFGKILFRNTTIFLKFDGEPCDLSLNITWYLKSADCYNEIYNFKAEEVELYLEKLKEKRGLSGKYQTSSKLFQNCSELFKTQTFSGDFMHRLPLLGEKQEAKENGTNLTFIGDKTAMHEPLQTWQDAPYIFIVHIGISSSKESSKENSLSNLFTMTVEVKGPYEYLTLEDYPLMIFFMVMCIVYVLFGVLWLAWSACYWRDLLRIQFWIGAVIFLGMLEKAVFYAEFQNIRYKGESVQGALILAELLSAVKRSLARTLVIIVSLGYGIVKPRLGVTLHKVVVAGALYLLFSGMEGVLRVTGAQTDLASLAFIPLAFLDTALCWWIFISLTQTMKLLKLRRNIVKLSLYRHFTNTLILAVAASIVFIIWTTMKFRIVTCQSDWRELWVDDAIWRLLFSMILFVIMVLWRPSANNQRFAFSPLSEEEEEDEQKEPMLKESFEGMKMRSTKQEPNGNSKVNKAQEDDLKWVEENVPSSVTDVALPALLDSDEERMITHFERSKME
UniProt Q8N511: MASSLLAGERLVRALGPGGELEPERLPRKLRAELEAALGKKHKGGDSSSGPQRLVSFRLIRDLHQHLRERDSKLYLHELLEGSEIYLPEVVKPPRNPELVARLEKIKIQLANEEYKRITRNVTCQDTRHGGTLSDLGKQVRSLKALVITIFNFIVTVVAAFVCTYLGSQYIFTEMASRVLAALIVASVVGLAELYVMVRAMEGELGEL

Compound in the test: COc1ccc(Cn2ccc3cc(C)c(C(=O)NO)cc32)cc1
In words: dose-dependent thermal stabilisation call (2D-TPP, DLPTP, 10% FDR) (binary (1 = stabilised)); higher = stabilised by the compound. The conditions noted are these: system: HL-60 intact cells; concentration range 0.04-10 µM. The procedure:
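2D thermal proteome profiling in intact HL-60 cells treated with BRD-3811 (0, 0.04, 0.29, 2, 10 uM) for 90 min at 37 C, then heated 3 min at one of 12 temperatures (42-63.9 C). Soluble protein was quantified by TMT10 MS. The value is the DLPTP call of the paper: dose-dependent thermal stabilisation over all temperatures at 10% FDR (F-test of a dose-response against a flat model); one experiment, one call per tested protein.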
Consider TMEM205 (UniProt Q6UW68), for which the “dose-dependent thermal stabilisation call” value is inactive: 0. For TRIM59 (UniProt Q8IWR1) the value was inactive: 0; for TTC1 (UniProt Q99614), inactive: 0; for TMEM181 (UniProt Q9P2C4), inactive: 0. Then TRIM11 (UniProt Q96F44), with inactive: 0; and TLR2 (UniProt O60603), with inactive: 0; and TMEM115 (UniProt Q12893), with inactive: 0. For TNFRSF10A (UniProt O00220) the value was inactive: 0. As to TSPAN33 (UniProt Q86UF1), the “dose-dependent thermal stabilisation call” value is inactive: 0. Consider TNPO1 (UniProt Q92973), for which the “dose-dependent thermal stabilisation call” value is inactive: 0.

Take TRIM22 (UniProt Q8IYM9): the “dose-dependent thermal stabilisation call” value is inactive: 0. Then TMPO, with inactive: 0; and TP53BP1 (UniProt Q12888), with inactive: 0. Then TMEM63A (UniProt O94886), with inactive: 0; and TSEN34 (UniProt Q9BSV6), with inactive: 0. For TOP2B (UniProt Q02880) the value was inactive: 0. Regarding TPM4 (UniProt P67936), the “dose-dependent thermal stabilisation call” value was inactive: 0.

Consider TRMU (UniProt O75648), for which the “dose-dependent thermal stabilisation call” value is inactive: 0. Then TIMM8B (UniProt Q9Y5J9), with inactive: 0. Take TLE4 (UniProt Q04727): the “dose-dependent thermal stabilisation call” value was inactive: 0. Then TMEM206 (UniProt Q9H813), with inactive: 0; and TIMM22 (UniProt Q9Y584), with inactive: 0; and TM9SF1 (UniProt O15321), with inactive: 0. Regarding TP53BP2 (UniProt Q13625), the “dose-dependent thermal stabilisation call” value was inactive: 0. Then THRAP3 (UniProt Q9Y2W1), with inactive: 0; and TRAPPC6A (UniProt O75865), with inactive: 0; and TNFRSF10D (UniProt Q9UBN6), with inactive: 0. For TMEM70 (UniProt Q9BUB7) the value was inactive: 0; for TM7SF3 (UniProt Q9NS93), active: 1. TOMM34 (UniProt Q15785): the “dose-dependent thermal stabilisation call” value was inactive: 0. For TLCD1 (UniProt Q96CP7) the value was inactive: 0. In the case of TOMM20 (UniProt Q15388), the “dose-dependent thermal stabilisation call” value is inactive: 0. Regarding TMEM57 (UniProt Q8N5G2), the “dose-dependent thermal stabilisation call” value is inactive: 0. With TM9SF2 (UniProt Q99805), the “dose-dependent thermal stabilisation call” value is inactive: 0. For TMEM87A (UniProt Q8NBN3), the “dose-dependent thermal stabilisation call” value is inactive: 0. Regarding TNRC6A (UniProt Q8NDV7), the “dose-dependent thermal stabilisation call” value is inactive: 0. With TMEM199 (UniProt Q8N511), the “dose-dependent thermal stabilisation call” value is inactive: 0. Then TRIOBP (UniProt Q9H2D6), with inactive: 0.

As for TIFA (UniProt Q96CG3), the “dose-dependent thermal stabilisation call” value was inactive: 0.

TPRG1L (UniProt Q5T0D9): the “dose-dependent thermal stabilisation call” value is inactive: 0.

For the origin of these results see the supplement of paper PMC7666118.
